# Source: the supplement of paper PMC12067093, “Discovery and optimisation of a covalent ligand for TRIM25 and its application to targeted protein ubiquitination” (Chemical Science, 2025)
# Amino acid sequences for entries named in this document (tags omitted). A change or cut given only in a name is not applied to a line headed by its entry.
# UniProt Q2M2I8: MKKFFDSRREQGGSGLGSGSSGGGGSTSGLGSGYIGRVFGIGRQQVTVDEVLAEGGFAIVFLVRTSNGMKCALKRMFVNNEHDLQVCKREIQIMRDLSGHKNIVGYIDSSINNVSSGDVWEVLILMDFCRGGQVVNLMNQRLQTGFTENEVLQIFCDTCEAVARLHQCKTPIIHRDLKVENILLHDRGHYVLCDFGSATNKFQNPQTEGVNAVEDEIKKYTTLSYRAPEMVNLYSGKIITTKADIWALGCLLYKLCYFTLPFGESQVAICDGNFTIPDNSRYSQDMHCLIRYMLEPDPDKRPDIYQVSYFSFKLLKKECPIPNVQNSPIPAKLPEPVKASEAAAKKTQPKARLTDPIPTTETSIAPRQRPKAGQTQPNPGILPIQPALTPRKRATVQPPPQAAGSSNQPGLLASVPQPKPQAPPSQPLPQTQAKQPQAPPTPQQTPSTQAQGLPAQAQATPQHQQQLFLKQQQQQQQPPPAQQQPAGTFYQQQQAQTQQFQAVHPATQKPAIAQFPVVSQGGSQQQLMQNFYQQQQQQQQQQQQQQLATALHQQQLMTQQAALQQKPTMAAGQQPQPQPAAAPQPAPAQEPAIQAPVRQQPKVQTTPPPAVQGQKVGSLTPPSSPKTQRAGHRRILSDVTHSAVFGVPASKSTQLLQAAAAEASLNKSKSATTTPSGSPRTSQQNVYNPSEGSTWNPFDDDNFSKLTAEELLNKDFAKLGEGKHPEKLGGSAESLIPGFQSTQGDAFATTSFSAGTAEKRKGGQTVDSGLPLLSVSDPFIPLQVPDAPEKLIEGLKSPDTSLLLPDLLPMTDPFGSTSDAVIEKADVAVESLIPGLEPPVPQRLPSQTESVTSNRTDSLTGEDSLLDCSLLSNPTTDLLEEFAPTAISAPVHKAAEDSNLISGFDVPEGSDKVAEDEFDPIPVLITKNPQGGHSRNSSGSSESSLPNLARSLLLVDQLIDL
# UniProt P49588, whole entry, looked up: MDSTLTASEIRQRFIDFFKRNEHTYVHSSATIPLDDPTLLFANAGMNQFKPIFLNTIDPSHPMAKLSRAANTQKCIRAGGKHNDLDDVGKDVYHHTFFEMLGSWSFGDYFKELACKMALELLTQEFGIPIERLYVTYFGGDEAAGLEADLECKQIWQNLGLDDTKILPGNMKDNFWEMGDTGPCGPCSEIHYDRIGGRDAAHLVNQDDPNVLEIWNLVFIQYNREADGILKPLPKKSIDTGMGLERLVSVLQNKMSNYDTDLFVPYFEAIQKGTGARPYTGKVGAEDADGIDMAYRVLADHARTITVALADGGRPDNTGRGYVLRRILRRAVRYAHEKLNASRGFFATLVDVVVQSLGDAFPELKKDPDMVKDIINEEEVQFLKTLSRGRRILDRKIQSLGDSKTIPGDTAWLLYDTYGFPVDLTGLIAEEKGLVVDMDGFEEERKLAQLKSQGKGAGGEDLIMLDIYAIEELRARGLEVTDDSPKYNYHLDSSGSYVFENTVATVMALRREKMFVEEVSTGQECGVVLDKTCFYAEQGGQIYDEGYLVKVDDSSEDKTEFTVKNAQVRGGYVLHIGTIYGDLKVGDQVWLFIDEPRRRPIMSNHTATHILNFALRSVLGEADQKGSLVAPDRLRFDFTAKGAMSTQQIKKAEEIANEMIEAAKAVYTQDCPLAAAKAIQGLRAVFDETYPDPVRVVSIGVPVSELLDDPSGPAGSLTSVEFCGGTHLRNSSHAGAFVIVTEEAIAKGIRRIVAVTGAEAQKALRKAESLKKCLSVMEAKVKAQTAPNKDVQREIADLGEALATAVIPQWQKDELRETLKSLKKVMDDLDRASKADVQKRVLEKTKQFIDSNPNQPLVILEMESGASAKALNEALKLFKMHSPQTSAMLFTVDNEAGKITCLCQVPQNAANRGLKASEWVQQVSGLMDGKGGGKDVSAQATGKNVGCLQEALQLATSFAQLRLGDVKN
# UniProt Q99798: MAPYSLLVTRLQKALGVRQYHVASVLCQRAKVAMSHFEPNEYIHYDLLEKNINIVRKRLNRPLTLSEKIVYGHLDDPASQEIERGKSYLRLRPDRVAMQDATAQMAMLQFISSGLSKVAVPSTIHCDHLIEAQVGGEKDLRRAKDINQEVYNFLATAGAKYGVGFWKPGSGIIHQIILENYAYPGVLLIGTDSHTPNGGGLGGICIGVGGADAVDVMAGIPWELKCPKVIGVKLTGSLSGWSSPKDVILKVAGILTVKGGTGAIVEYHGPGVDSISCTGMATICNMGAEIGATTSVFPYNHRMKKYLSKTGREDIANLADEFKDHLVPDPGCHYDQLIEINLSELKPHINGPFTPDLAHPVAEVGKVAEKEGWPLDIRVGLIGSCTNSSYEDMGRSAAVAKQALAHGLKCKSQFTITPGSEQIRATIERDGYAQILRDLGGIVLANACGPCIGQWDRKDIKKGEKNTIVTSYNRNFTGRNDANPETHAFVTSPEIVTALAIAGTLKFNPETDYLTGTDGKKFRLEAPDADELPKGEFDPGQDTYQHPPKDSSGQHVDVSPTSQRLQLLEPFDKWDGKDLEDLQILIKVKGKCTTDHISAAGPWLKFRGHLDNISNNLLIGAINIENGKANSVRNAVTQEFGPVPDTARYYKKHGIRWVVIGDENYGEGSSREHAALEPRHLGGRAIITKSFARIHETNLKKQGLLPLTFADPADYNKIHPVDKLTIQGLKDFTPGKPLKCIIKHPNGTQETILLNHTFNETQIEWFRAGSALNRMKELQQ
# UniProt P53396: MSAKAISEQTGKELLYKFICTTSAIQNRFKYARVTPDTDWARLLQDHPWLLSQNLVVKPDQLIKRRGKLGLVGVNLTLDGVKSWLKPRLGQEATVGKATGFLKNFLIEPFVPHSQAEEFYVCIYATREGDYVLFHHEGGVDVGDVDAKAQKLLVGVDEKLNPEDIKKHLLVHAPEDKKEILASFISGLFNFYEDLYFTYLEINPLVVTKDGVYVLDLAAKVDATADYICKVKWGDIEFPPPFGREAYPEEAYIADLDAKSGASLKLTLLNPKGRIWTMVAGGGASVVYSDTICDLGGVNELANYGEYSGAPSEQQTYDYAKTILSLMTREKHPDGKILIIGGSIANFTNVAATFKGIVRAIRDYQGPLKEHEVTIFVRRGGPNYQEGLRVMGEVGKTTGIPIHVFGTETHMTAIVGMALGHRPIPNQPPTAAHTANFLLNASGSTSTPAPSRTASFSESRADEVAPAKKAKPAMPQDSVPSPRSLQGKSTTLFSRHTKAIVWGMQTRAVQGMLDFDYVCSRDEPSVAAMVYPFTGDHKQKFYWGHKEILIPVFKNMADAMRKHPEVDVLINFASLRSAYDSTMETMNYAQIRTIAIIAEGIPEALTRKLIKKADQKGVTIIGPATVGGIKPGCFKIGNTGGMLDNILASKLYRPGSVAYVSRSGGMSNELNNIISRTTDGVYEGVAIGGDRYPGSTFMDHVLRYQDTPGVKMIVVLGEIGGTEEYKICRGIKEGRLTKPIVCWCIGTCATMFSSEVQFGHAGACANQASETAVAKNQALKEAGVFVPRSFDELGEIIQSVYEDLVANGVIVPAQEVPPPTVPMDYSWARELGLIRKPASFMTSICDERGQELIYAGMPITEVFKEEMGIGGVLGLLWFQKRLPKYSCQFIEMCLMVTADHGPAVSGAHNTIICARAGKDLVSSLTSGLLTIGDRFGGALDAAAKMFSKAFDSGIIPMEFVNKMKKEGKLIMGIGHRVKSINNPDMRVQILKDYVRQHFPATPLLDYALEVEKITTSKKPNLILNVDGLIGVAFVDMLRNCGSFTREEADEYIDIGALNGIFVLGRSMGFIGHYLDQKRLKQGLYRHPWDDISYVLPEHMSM
# UniProt Q8N2K0: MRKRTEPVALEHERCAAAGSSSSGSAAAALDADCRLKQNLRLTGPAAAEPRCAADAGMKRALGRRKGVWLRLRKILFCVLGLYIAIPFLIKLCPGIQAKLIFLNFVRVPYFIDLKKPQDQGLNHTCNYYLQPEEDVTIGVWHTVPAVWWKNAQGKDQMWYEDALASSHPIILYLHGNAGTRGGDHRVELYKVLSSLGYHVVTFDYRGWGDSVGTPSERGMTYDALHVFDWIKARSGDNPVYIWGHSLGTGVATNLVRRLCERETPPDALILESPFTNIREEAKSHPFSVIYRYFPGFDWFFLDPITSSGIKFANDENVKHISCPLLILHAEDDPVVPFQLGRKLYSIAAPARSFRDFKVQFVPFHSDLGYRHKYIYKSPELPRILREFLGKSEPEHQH
# UniProt O95477, whole entry: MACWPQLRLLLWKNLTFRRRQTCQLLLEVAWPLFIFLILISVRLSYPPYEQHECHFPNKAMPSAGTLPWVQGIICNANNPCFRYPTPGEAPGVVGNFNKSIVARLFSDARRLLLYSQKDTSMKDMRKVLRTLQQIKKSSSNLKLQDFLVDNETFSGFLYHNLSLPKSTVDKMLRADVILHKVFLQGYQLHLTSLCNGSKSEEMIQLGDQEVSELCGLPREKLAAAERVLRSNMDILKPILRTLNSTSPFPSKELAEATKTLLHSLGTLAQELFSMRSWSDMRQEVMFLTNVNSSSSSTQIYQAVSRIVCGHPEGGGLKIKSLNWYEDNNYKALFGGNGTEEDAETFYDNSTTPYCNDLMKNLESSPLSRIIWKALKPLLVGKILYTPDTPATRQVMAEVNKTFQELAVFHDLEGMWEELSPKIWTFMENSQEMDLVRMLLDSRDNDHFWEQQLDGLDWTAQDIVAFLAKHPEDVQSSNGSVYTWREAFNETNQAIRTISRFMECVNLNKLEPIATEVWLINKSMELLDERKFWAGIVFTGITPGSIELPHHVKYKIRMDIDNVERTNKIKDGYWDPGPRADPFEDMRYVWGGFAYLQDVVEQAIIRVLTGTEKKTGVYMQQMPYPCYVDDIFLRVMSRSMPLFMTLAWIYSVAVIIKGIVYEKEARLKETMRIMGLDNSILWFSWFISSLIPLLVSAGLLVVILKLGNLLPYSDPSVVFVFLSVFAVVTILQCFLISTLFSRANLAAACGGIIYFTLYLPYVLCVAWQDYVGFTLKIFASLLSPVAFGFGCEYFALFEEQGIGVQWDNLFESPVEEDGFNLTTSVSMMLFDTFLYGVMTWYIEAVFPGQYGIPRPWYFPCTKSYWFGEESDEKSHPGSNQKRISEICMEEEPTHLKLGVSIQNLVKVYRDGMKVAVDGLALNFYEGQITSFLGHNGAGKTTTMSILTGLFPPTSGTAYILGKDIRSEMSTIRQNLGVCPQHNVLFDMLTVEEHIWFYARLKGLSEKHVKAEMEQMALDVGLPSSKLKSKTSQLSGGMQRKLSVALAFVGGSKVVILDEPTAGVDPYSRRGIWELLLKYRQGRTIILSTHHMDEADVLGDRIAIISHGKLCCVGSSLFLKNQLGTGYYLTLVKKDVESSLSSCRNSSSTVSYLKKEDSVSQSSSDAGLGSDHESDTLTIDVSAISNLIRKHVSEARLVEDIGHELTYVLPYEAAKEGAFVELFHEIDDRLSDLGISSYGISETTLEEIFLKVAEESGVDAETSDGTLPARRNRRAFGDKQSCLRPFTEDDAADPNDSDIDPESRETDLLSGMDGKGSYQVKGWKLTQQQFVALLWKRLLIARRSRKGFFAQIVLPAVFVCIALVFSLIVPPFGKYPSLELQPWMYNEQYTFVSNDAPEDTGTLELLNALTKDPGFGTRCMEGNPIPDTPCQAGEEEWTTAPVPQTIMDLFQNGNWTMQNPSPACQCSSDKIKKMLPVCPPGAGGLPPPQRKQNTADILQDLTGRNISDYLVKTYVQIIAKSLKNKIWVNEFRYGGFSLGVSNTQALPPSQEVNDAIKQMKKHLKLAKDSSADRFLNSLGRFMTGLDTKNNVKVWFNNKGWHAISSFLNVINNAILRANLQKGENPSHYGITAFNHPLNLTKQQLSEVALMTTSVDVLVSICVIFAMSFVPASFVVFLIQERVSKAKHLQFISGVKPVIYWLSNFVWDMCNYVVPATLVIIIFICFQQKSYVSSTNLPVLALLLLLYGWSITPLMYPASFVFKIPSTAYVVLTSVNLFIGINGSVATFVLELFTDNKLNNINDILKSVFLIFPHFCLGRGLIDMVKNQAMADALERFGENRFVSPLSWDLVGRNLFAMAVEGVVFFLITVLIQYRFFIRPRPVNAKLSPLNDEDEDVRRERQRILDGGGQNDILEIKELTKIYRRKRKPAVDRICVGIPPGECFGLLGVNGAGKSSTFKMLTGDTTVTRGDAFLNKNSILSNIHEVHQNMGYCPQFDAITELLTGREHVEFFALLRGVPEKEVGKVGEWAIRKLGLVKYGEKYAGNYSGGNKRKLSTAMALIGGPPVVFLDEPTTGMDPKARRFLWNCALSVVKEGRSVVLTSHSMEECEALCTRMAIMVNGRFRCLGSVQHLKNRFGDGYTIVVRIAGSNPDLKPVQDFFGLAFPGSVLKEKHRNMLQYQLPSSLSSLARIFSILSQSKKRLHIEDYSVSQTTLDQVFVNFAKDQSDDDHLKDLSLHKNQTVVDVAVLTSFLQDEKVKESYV
# The other results are listed elsewhere or left out.
# Compound: CC1Cc2ccccc2N1C(=O)C1CCCN(C1)C(=O)CCl (mixture of isomers) [TRIM25 ligand 11 (diastereomer mixture)]
# Assay: probe-labelled cysteine peptide fold change vs DMSO (competition) (log2 fold change); higher = less target engagement (more negative = stronger competition)
# Conditions: 10 µM; THP-1; incubation time: 4 h
# 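Further: competitive chemoproteomic profiling in live THP-1 cells with an iodoacetamide desthiobiotin (IA-DTB) probe, comparing probe-labelled peptide intensities in compound-treated cells against DMSO-treated controls.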
row,Target,probe-labelled cysteine peptide fold change
1,AAK1_Q2M2I8_288_YSQDMHCLIR (UniProt Q2M2I8),0.0172
2,ABHD6_Q9BV23_217_IPLIPSTPEEMSEMLQLCSYVR (UniProt Q9BV23),0.278
3,ABHD15_Q6UXT9_323_SLREFEEALFCHTK (UniProt Q6UXT9),0.0883
4,ABHD10_Q9NUJ1_107_SLGHACIR (UniProt Q9NUJ1),0.193
5,AARS_P49588_901_ITCLCQVPQNAANR (UniProt P49588),0.023
6,ACO2_Q99798_448+451_DLGGIVLANACGPCIGQWDRK (UniProt Q99798),-0.253
7,ACLY_P53396_1040_NCGSFTREEADEYIDIGALNGIFVLGR (UniProt P53396),-0.191
8,AARS_P49588_901+903_ITCLCQVPQNAANR (UniProt P49588),0.18
9,ABHD12_Q8N2K0_52_CAADAGMK (UniProt Q8N2K0),-0.081
10,ACO1_P21399_118_INPVCPADLVIDHSIQVDFNR (UniProt P21399),-0.039
11,ABCE1_P61221_65_KCPFGALSIVNLPSNLEK (UniProt P61221),-0.0198
12,ACAT2_Q9BWD1_158_IGEMPLTDSILCDGLTDAFHNCHMGITAENVAK (UniProt Q9BWD1),-0.0888
13,AAK1_Q2M2I8_319_KECPIPNVQNSPIPAK (UniProt Q2M2I8),-0.0908
14,AARS_P49588_947_NVGCLQEALQLATSFAQLR (UniProt P49588),0.0047
15,ACAT2_Q9BWD1_65_RATVAPEDVSEVIFGHVLAAGCGQNPVR (UniProt Q9BWD1),0.0249
16,ABRAXAS2_Q15018_237_VVESCQAEVNK (UniProt Q15018),0.0911
17,ABCA1_O95477_215_SEEMIQLGDQEVSELCGLPR (UniProt O95477),-0.251
18,ACACA_Q13085_1396_NFDLTAIPCANHK (UniProt Q13085),0.0588
19,ACO2_Q99798_592_CTTDHISAAGPWLK (UniProt Q99798),0.0877

row,Target,probe-labelled cysteine peptide fold change
1,ACBD6_Q9BR61_200_ALLHWACDR (UniProt Q9BR61),-0.00153
2,ABCE1_P61221_38_LCIEVTPQSK (UniProt P61221),-0.0845
3,ABHD16A_O95870_416_QHLNLNNAEQLCR (UniProt O95870),-0.104
4,ABHD11_Q8NFV4_135_NHGDSPHSPDMSYEIMSQDLQDLLPQLGLVPCVVVGHSMGGK (UniProt Q8NFV4),-0.112
5,ACAA1_P09110_49_RTAICR (UniProt P09110),0.0908
6,ACLY_P53396_229_VDATADYICK (UniProt P53396),0.099
7,ABHD17B_Q5VST6_68_DAIECFMTR (UniProt Q5VST6),-0.0364
8,ABCE1_P61221_227_FACAVVCIQK (UniProt P61221),-0.301
9,ABHD3_Q8WU67_86_FLQDHCPVVTETYYPTVWCWEGR (UniProt Q8WU67),-0.0185
10,ACOT11_Q8WXI4_529_RGETLCSGFCLWR (UniProt Q8WXI4),0.138
11,AARS_P49588_184_DNFWEMGDTGPCGPCSEIHYDR (UniProt P49588),-0.0236
12,ACACA_Q13085_378_DCSVQR (UniProt Q13085),0.0963
13,ACOT13_Q9NPJ3_74_VEEEHTNAIGTLHGGLTATLVDNISTMALLCTER (UniProt Q9NPJ3),-0.202
14,ACO2_Q99798_451_DLGGIVLANACGPCIGQWDRK (UniProt Q99798),-0.223
15,ACOT2_P49753_300_GGELCLSMASFLK (UniProt P49753),0.0491
16,AARS_P49588_671_AVYTQDCPLAAAK (UniProt P49588),0.01
17,ABHD17A_Q96GS6_205_YECAAVVLHSPLTSGMR (UniProt Q96GS6),0.0924
18,AAK1_Q2M2I8_250_ADIWALGCLLYK (UniProt Q2M2I8),0.00782
19,ABCE1_P61221_231_FACAVVCIQK (UniProt P61221),0.109
